Measurements: publication PMC4824076, “Integrated microfluidic approach for quantitative high-throughput measurements of transcription factor binding affinities”

Experiments:
ATF3 (Homo sapiens) = target: T1, ATF3 (Homo sapiens) (UniProt P18847); test: binding assay; details: MITOMI-type chip (QPID); rabbit reticulocyte lysate, 1 h; wash 50 mM HEPES; temperature not stated; DNA spotted at 0.0156-2 uM; protein translated in vitro; protein details: N-cMyc, C-His6 (kept); label: Cy5 on the primer strand
T1 sequence (looked up, limits assumed): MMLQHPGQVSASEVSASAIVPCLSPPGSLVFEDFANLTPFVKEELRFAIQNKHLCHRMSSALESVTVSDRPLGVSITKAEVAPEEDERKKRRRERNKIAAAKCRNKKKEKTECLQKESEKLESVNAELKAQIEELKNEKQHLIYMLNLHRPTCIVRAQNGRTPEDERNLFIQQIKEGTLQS

ATF1 (Homo sapiens) = target: T2, ATF1 (Homo sapiens) (UniProt P18846); test: binding assay; details: MITOMI-type chip (QPID); rabbit reticulocyte lysate, 1 h; wash 50 mM HEPES; temperature not stated; DNA spotted at 0.0156-2 uM; protein translated in vitro; protein details: N-cMyc, C-His6 (kept); label: Cy5 on the primer strand
T2 sequence (looked up, limits assumed): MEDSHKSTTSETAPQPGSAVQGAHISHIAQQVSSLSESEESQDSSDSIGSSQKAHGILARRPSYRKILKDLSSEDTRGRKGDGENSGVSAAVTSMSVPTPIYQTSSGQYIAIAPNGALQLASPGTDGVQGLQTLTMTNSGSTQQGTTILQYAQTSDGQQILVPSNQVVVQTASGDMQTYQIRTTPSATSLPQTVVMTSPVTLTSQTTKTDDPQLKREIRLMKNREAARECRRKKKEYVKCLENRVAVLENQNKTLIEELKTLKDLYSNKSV

Row | Sequence | Kd (ATF3 (Homo sapiens)) [nM] | Kd (ATF1 (Homo sapiens)) [nM]
1 | CGCCCCAGCAACTGTCGACGTCACACGACCTGGGCCTCCTCCGGCGGTATGAC (double strand) [66.ATF1_CRE_hs_18] | > 2000 | 137
2 | CGCCAGTGAGATCCCATACGTCACGTGCTTTGCGATTTCTCCGGCGGTATGAC (double strand) [58.ATF1_CRE_hs_10] | > 2000 | 196
3 | CGCCCGGCGGACACCTAACGTCACTTCCGCTTGGGTCGCTCCGGCGGTATGAC (double strand) [77.ATF1_CRE_hs_29] | > 2000 | 320
4 | CGCCCTCGGGAGGCGCAGCGTCAGGGCGGGCGGCAGCACTCCGGCGGTATGAC (double strand) [32.ATF3_CRE_hs_18] | > 2000 | 570
5 | CGCGCTGGCGTTAGGAGACGTCACTCCCGCGCATAACTCTCCGGCGGTATGAC (double strand) [81.ATF1_CRE_hs_33] | > 2000 | 162
6 | CGCGCGCGCAGGCGCCTGCGTCATTCACGCGCGCCGCACTCCGGCGGTATGAC (double strand) [101.ATF1_ATF3_CRE_hs_19] | > 2000 | 703
7 | CGCGGCTCCCGCATAGGGCGTCACGTACGTTTAACGTCCTCCGGCGGTATGAC (double strand) [82.ATF1_CRE_hs_34] | > 2000 | 787
8 | CGCCGATTGGCCGGCTGGCGTCACGTGGCCTCCATCAGCTCCGGCGGTATGAC (double strand) [36.ATF3_CRE_hs_22] | > 2000 | 328
9 | CGCTCGTGCGCGCGGGCCCGTCAGAGTGAGAAGCCCCGCTCCGGCGGTATGAC (double strand) [29.ATF3_CRE_hs_15] | > 2000 | > 2000
10 | CGCCGGAAGGCGTAAGTGCGTCACGGAGAGCATCTCGGCTCCGGCGGTATGAC (double strand) [75.ATF1_CRE_hs_27] | > 2000 | 327
11 | CGCGGACGCGGAACAGGGCGTCACCCAGGCTCGTAAACCTCCGGCGGTATGAC (double strand) [69.ATF1_CRE_hs_21] | > 2000 | 256
12 | CGCGCTGGACCTGCGGCGCGTCACGTGGCGGCTGCCCCCTCCGGCGGTATGAC (double strand) [33.ATF3_CRE_hs_19] | > 2000 | 281
13 | CGCTCCTGGCAGTCCCCGCGTCACGTGGGGCCCTACCTCTCCGGCGGTATGAC (double strand) [35.ATF3_CRE_hs_21] | > 2000 | > 2000
14 | CGCAAATGGAGTCGCAGCCGTCAACTCGCCCTCGGCCTCTCCGGCGGTATGAC (double strand) [41.ATF3_CRE_hs_27] | > 2000 | 292
15 | CGCGCGCCGTCGCTATGGCGTCACTGCCCTCGCGGCCACTCCGGCGGTATGAC (double strand) [89.ATF1_ATF3_CRE_hs_7] |  | 185
16 | CGCAGCAACGATCACCATCGTCACTTCTCCCTCTCTACCTCCGGCGGTATGAC (double strand) [54.ATF1_CRE_hs_6] |  | 244
17 | CGCGGATAGGCCCCGGAGCGTCACAGGCACCGCCCTCTCTCCGGCGGTATGAC (double strand) [38.ATF3_CRE_hs_24] |  | 540
18 | CGCGCGCCGGTCCCCGTACGTCACCGCCCCGCGCCGGCCTCCGGCGGTATGAC (double strand) [94.ATF1_ATF3_CRE_hs_12] |  | 277
19 | CGCTCGACACAAGCGCTACGTCACAAGGGTGCGCCACGCTCCGGCGGTATGAC (double strand) [85.ATF1_ATF3_CRE_hs_3] |  | 147

Row | Sequence | Kd (ATF3 (Homo sapiens)) [nM] | Kd (ATF1 (Homo sapiens)) [nM]
20 | CGCGGCTGCGGATGGAGGGCGGGCCGGGGACCTTACCACTCCGGCGGTATGAC (double strand) [125.Unbound_non_CRE_4] |  | > 2000
21 | CGCCGCCCCCTCTCCTGGCGTCAGCCTCTTCCGATTGGCTCCGGCGGTATGAC (double strand) [115.ATF1_ATF3_CRE_hs_33] |  | 526
22 | CGCCCCAGCTACTGGCGACGTCACCGCACCGTAGGCTGCTCCGGCGGTATGAC (double strand) [73.ATF1_CRE_hs_25] |  | 142
23 | CGCTTCCGCGTCGCTACGTGACGTCAGTGCGAGCGACCCCGCTCCGGCGGTATGAC (double strand) [8.ATF1_ATF3_CRE_2] |  | 111
24 | CGCGGGCACTTCCGATTTCGTCATCAGCACGCGCACCCCTCCGGCGGTATGAC (double strand) [113.ATF1_ATF3_CRE_hs_31] |  | 220
25 | CGCGGCGGGGGCCTGGGCCGTCACGTGGGTGCGCCGCGCTCCGGCGGTATGAC (double strand) [26.ATF3_CRE_hs_12] |  | > 2000
26 | CGCGGGCGGTTGGAGATGCGTCACGGGGCGGGTCCCGCCTCCGGCGGTATGAC (double strand) [20.ATF3_CRE_hs_6] |  | 1340
27 | CGCGACGCGAGAGGCTCGCGTCATCCTGCAGCGCCGACCTCCGGCGGTATGAC (double strand) [106.ATF1_ATF3_CRE_hs_24] |  | 291
28 | CGCAGAAGCAGTCCAGGTCGTCAAAGTGCTCCATGTGCCTCCGGCGGTATGAC (double strand) [25.ATF3_CRE_hs_11] |  | 616
29 | CGCCGGCGCGCTTCCCTACGTCACTCGGAGCGCCGGCGCTCCGGCGGTATGAC (double strand) [105.ATF1_ATF3_CRE_hs_23] |  | 198
30 | CGCGCGGGAGCCGCCGGCCGTCACGTGGGAGGTCACGTCTCCGGCGGTATGAC (double strand) [18.ATF3_CRE_hs_4] |  | > 2000
31 | CGCCCGGGAGCGCGCCTACGTCACCGCGCAGACCTCGGCTCCGGCGGTATGAC (double strand) [24.ATF3_CRE_hs_10] |  | 143
32 | CGCCTGCAGCGTTCCTGGCGTCAGCCCCTATCCTCCAGCTCCGGCGGTATGAC (double strand) [28.ATF3_CRE_hs_14] |  | > 2000
33 | CGCCTTTTGCCCACGTTACGTCATAGACATGCGCGCGACTCCGGCGGTATGAC (double strand) [59.ATF1_CRE_hs_11] |  | 87.5
34 | CGCAGAGACAGCACTGTGCGTCATGTACCAGCGCCGGACTCCGGCGGTATGAC (double strand) [108.ATF1_ATF3_CRE_hs_26] |  | 188
35 | CGCCGAGTGGCGCCGCCGTGACGTCACATGGGTGCGACGCGCTCCGGCGGTATGAC (double strand) [9.ATF1_ATF3_CRE_3] |  | 32.6
36 | CGCAGGCGGCTCCGCCTGCGTCATCCATGATTTCATCACTCCGGCGGTATGAC (double strand) [76.ATF1_CRE_hs_28] |  | 109
37 | CGCACGACCAGCGTGCTGCGTCACGGCGGTGCGCCGGACTCCGGCGGTATGAC (double strand) [112.ATF1_ATF3_CRE_hs_30] |  | 148
38 | CGCCCCAATCCCGTCGAGCGTCAGGCGTGAGGCGGCGCCTCCGGCGGTATGAC (double strand) [91.ATF1_ATF3_CRE_hs_9] |  | 128

Row | Sequence | Kd (ATF3 (Homo sapiens)) [nM] | Kd (ATF1 (Homo sapiens)) [nM]
39 | CGCCTTACGTCTGCTGTGCGTCATCAGTCCGAGCCAAGCTCCGGCGGTATGAC (double strand) [71.ATF1_CRE_hs_23] |  | 192
40 | CGCCAGCCCAGCCTCGGACGTCAACAATCCATGTTTCTCTCCGGCGGTATGAC (double strand) [121.Unbound_CRE_hs_5] |  | 792
41 | CGCCTGCGAAGGCTATCGCGTCATTCGATGGCTCCTCCCTCCGGCGGTATGAC (double strand) [64.ATF1_CRE_hs_16] |  | 443
42 | CGCTTGGCAGACGTCGTGCGTCATTACCAACGAGGCGCCTCCGGCGGTATGAC (double strand) [90.ATF1_ATF3_CRE_hs_8] |  | 588
43 | CGCCGCGCTACCGCATTACGTCAGCAGCCCGCGACGCGCTCCGGCGGTATGAC (double strand) [97.ATF1_ATF3_CRE_hs_15] |  | 121
44 | CGCCGCGCGCGGTTATTACGTCACATCCTGGTTCCGCCCTCCGGCGGTATGAC (double strand) [45.ATF3_CRE_hs_31] |  | 122
45 | CGCGTCGCTGCCTCCTCGCGTCATCCCTCCGCGCCGGCCTCCGGCGGTATGAC (double strand) [49.ATF1_CRE_hs_1] |  | 277
46 | CGCGGCTGCAACATTAACCGTCATCAGCGCGCCTCTTCCTCCGGCGGTATGAC (double strand) [114.ATF1_ATF3_CRE_hs_32] |  | 588
47 | CGCGACTTTACGACACTTCGTCAAGTCAGCAGGTCGTACTCCGGCGGTATGAC (double strand) [27.ATF3_CRE_hs_13] |  | 1140
48 | CGCTATCCCAAAACACTTTGACGTCAGGCAGAGCTGGGATGCTCCGGCGGTATGAC (double strand) [12.Unbound_CRE_3] |  | 205
49 | CGCGTCGCGATAAGATGGCGTCACGGCGCGCCTCGCTGCTCCGGCGGTATGAC (double strand) [30.ATF3_CRE_hs_16] |  | 174
50 | CGCAGTTGCGGCTTATTACGTCACAGTAATTGCTGTACCTCCGGCGGTATGAC (double strand) [57.ATF1_CRE_hs_9] |  | 62.5
51 | CGCTTCCACCCGTGGACTCGTCAGGGCGTGAGGACCCACTCCGGCGGTATGAC (double strand) [37.ATF3_CRE_hs_23] |  | 386
52 | CGCCGGTGCTTCCGTGTGCGTCATCAGGAGGCGACCGTCTCCGGCGGTATGAC (double strand) [99.ATF1_ATF3_CRE_hs_17] |  | 362
53 | CGCTTGTGAATTTACATGTGACGTCAGAAAGGCTCTGTAGACTCCGGCGGTATGAC (double strand) [10.Unbound_CRE_1] |  | 57.8
54 | CGCAGCACAGGCCCCGCCCGTCACGTGCAGCGCCCGAGCTCCGGCGGTATGAC (double strand) [34.ATF3_CRE_hs_20] |  | 212
55 | CGCGGCGCTCCGGAAATGCGTCAGAGAACTGCCTCGAGCTCCGGCGGTATGAC (double strand) [110.ATF1_ATF3_CRE_hs_28] |  | 1170
56 | CGCGGCGGTTGCGTCTTACGTCATCGAACTGCGGCCATCTCCGGCGGTATGAC (double strand) [74.ATF1_CRE_hs_26] |  | 106

Where a protein sequence is shown, tags need not be part of it. For some of these results: For at least one entry, the source does not settle the construct or the ends of the probe.
